This is one part of the list. Residues, ends and D or L forms follow the SMILES beside them. *: point of attachment. Cbz = O=C(OCc1ccccc1)*
Key:
Assay in all cases: log2 fold change, soluble protein after heating vs DMSO (PISA); higher = thermal stabilisation; K562 cells, 10 uM, 30 min; active = over 0.2 and 3.5 SD of the protein, either way, in both replicates (recomputed)
erlotinib = compound: C#Cc1cccc(Nc2ncnc3cc(OCCOC)c(OCCOC)cc23)c1 [erlotinib]
How it was run: (§1)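 K562 cells at 2×10^6 cells/mL were treated with 10 μM compound for 30 min. Aliquots were heated for 3 min across 48°C-58°C, pooled, and extracted in PBS with 0.5% NP-40 at 4°C; soluble protein was the supernatant after 21,000xg for 90 min. Soluble protein was quantified by TMTpro 16plex LC-MS/MS with channel sums equalised, and reported as log2 fold change in thermal stability against DMSO controls, with values from duplicates.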

By UniProt entry, the sequences of proteins in these tests, tags left out. Where a name states a change or a piece, a line headed by the entry shows the natural chain unless it says otherwise.
UniProt Q6PGN9: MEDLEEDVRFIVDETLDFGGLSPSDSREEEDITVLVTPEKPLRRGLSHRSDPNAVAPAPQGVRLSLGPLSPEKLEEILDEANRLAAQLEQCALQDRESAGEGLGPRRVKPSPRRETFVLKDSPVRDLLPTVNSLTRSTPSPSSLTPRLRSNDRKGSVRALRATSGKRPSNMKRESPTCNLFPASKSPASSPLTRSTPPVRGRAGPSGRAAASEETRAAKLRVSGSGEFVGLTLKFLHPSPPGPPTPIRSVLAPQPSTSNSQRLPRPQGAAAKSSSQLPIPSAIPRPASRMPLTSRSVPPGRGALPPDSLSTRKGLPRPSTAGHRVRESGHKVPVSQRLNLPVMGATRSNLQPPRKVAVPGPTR
UniProt Q5JS54: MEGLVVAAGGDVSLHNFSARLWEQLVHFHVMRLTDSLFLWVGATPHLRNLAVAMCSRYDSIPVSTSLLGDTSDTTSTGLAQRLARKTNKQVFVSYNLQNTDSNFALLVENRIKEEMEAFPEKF
UniProt Q96BW5: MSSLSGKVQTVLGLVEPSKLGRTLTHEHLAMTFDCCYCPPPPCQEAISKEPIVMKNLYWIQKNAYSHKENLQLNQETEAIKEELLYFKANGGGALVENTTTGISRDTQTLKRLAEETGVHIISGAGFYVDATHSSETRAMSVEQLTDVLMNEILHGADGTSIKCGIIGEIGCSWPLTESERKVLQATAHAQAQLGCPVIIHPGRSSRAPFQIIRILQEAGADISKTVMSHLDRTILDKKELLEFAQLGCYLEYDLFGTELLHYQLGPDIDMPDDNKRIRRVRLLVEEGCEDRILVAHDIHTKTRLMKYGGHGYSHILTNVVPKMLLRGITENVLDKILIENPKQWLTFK
UniProt P47897: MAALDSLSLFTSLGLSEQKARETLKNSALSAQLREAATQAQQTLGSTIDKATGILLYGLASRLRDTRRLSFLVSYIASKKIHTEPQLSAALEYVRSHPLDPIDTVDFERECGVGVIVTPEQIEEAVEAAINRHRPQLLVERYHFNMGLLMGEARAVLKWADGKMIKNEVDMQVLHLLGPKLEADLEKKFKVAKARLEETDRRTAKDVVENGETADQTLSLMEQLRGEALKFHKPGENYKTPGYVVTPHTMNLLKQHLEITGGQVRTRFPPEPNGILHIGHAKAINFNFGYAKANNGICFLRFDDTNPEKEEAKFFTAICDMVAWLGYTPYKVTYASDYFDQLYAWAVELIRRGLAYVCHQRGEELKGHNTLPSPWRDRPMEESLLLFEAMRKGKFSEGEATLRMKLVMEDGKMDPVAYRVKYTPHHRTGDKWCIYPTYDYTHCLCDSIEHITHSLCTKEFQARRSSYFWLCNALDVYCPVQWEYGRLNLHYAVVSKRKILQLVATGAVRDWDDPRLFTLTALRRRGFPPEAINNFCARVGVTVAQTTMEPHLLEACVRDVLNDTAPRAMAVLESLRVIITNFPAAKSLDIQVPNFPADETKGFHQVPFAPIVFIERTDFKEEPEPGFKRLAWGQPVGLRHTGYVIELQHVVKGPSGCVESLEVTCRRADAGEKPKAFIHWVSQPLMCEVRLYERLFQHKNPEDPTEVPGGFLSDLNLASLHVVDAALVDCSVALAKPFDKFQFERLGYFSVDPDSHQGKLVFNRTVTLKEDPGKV
UniProt P25786: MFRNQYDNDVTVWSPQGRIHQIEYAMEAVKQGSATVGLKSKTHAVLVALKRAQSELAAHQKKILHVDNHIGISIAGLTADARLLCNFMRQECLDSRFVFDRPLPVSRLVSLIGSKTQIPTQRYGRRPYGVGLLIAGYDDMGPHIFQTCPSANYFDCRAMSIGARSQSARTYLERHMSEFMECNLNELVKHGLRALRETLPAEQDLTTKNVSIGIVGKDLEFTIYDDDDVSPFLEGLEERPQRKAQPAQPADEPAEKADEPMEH
UniProt P18031: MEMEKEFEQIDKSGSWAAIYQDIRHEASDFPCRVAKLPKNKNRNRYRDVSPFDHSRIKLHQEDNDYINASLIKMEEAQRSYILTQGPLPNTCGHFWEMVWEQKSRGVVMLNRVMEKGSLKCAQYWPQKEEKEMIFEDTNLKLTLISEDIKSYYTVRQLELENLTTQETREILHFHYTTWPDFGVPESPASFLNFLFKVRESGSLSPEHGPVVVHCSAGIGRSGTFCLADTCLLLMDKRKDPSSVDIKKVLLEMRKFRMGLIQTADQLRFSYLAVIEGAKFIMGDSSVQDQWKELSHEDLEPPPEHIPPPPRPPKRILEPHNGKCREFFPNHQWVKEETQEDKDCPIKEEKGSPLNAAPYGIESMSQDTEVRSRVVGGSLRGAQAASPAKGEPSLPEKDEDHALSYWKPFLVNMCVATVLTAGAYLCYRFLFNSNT
UniProt Q96C36: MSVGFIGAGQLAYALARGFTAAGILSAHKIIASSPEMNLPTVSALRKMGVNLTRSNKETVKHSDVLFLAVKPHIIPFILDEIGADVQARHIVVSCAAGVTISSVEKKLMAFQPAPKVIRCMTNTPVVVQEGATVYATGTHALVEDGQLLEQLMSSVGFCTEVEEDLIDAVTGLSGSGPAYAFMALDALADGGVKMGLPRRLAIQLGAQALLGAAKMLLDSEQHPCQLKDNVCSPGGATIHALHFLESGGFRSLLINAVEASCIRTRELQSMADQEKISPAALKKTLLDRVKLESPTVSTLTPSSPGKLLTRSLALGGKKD
UniProt O00391: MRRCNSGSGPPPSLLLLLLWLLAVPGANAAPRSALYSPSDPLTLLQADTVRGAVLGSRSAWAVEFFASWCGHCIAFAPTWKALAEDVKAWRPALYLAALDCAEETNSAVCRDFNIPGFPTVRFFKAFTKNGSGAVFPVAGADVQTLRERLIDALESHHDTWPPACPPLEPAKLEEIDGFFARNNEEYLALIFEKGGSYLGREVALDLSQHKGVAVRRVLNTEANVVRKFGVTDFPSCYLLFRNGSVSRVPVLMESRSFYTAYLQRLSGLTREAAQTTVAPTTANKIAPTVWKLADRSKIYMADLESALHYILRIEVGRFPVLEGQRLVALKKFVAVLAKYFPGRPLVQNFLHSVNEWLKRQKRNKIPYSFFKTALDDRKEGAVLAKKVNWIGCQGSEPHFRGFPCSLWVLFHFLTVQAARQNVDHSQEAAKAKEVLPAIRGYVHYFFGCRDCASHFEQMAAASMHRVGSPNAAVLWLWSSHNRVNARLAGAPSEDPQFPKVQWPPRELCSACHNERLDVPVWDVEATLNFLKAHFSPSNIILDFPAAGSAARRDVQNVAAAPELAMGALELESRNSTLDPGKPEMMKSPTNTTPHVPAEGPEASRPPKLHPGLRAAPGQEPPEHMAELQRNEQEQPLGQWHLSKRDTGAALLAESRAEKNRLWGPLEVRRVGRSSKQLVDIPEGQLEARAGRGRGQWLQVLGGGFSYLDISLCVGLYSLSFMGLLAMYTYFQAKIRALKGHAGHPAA
UniProt Q8TAA3: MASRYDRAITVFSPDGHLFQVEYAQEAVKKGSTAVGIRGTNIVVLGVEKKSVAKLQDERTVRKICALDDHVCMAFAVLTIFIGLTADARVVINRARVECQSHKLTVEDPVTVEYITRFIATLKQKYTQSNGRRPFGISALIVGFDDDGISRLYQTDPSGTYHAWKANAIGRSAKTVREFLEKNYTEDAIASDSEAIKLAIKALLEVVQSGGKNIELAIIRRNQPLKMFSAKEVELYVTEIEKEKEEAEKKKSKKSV
UniProt P20962: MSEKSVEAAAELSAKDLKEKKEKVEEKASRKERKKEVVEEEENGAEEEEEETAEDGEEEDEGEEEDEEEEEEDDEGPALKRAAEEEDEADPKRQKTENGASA
UniProt Q9ULZ3, whole entry, looked up: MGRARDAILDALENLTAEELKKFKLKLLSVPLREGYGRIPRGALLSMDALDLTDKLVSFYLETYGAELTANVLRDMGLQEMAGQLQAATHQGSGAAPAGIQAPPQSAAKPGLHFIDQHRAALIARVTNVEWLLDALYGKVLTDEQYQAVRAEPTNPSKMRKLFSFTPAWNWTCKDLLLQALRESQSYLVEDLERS
UniProt Q9BT73: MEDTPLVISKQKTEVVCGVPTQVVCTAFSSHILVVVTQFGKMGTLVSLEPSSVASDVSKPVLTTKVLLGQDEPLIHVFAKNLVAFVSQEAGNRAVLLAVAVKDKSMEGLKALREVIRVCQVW
UniProt P23219, whole entry, looked up: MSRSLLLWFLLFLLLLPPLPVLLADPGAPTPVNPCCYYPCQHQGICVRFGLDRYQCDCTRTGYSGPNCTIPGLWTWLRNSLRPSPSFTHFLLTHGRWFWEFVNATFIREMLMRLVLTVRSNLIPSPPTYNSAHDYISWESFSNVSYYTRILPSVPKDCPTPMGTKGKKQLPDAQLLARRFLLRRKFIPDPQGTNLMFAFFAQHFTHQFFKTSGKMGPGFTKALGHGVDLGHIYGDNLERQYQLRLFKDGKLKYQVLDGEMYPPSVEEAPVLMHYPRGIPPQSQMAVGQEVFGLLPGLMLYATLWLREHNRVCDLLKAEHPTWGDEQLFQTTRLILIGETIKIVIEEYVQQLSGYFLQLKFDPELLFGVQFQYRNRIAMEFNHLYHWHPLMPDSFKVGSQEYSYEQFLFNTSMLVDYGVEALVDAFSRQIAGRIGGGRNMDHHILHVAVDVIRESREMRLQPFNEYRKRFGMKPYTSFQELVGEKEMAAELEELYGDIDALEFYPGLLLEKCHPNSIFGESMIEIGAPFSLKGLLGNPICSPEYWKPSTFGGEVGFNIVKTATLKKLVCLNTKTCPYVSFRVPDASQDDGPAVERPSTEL
UniProt Q05397, whole entry, looked up: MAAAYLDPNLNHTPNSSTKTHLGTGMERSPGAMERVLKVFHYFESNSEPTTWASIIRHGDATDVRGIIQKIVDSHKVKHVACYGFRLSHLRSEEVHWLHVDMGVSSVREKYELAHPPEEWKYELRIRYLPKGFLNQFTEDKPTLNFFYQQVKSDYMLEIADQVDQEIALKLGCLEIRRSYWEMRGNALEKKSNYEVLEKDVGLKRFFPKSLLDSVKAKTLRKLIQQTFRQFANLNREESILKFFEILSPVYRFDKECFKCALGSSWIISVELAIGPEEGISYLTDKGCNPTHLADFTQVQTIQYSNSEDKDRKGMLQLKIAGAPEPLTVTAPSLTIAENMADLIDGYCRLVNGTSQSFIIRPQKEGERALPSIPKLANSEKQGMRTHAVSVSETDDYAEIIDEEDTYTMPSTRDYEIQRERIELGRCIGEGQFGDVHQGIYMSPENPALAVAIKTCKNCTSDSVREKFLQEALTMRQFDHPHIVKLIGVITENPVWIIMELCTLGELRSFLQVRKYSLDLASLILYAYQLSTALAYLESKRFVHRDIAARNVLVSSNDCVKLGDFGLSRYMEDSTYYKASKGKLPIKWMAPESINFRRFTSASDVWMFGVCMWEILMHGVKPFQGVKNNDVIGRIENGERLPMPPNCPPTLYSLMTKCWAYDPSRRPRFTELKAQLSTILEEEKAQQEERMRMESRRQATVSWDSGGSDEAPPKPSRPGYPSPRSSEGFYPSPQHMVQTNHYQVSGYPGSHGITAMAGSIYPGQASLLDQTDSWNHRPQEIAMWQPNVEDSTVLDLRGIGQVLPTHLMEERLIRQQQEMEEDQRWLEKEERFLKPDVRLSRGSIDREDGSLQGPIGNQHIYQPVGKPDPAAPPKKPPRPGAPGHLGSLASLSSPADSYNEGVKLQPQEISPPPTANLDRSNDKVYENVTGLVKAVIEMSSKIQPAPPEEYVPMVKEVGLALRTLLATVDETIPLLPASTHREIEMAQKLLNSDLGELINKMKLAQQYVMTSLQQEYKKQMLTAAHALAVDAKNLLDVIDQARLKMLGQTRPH
UniProt Q9UL46, whole entry, looked up: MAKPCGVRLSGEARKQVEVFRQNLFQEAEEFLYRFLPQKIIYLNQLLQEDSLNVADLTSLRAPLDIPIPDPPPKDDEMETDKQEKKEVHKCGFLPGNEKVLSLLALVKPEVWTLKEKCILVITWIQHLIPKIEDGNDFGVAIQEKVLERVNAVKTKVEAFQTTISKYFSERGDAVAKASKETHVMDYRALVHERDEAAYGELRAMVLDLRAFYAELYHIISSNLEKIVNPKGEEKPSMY
UniProt P28074: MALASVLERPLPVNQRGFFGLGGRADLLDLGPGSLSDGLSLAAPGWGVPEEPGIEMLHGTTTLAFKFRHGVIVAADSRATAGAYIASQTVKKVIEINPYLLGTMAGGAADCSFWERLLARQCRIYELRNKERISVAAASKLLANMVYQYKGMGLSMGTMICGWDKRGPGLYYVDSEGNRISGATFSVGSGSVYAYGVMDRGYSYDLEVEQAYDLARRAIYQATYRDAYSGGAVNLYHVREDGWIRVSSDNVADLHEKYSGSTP

[1] = compound: C/C(=N\NC(=O)C1=CC(=CC=C1)S(=O)(=O)N2CCOCC2)/C3=C(C=CC(=C3)Cl)O
How it was run: as §1

[2] = compound: C1=CC(=C(C=C1Cl)C2=NC3=NC=CN=C3C(=N2)NC4=CC=NC=C4)F
How it was run: as §1

[3] = compound: C1=CC(=CC=C1C2=NC3=C(N2)C=C(C=C3)C(=O)N)OC4=CC=C(C=C4)Cl
How it was run: as §1

[4] = compound: C1=CC2=C(C=CC(=C2)/C=C\3/C(=O)NC(=NCC4=CC=CS4)S3)N=C1
How it was run: as §1

[5] = compound: C1=CC2=NC=CN=C2C=C1/C=C/3\C(=O)NC(=O)S3
How it was run: as §1

[6] = compound: C1=CC=C(C=C1)C2=NC(=C(N2)C3=CC=NC=C3)C4=CC(=C(C=C4)Cl)O
How it was run: as §1

[7] = compound: C1=CC=C2C(=C1)C3=NNC4=CC=CC(=C43)C2=O
How it was run: as §1

[8] = compound: C1CCN(C1)C(=O)NC2=CC=CC(=C2)NC3=NC=C(C(=N3)NCCC4=CN=CN4)Br
How it was run: as §1

[9] = compound: C1CN(CCC1(CC2=CC=C(C=C2)Cl)N)C3=NC=NC4=C3C=CN4
How it was run: as §1

IRAK-1-4 Inhibitor I = compound: C1COCCN1CCN2C3=CC=CC=C3N=C2NC(=O)C4=CC(=CC=C4)[N+](=O)[O-] [IRAK-1-4 Inhibitor I]
How it was run: as §1

ibrutinib = compound: C=CC(=O)N1CCC[C@@H](n2nc(-c3ccc(Oc4ccccc4)cc3)c3c(N)ncnc32)C1 [ibrutinib]
How it was run: as §1

[10] = compound: CC(=O)c1cnc2ccc(-c3cc(Cl)c(O)c(Cl)c3)nc2c1N[C@H]1CC[C@H](CN(C)C)CC1
How it was run: as §1

ralimetinib = compound: CC(C)(C)Cn1c(N)nc2ccc(-c3[nH]c(C(C)(C)C)nc3-c3ccc(F)cc3)nc21 [ralimetinib]
How it was run: as §1

[11] = compound: CC(C)(O)CC(=O)NCCn1ccc2ncnc(Nc3ccc(Oc4cccc(C(F)(F)F)c4)c(Cl)c3)c21
How it was run: as §1

[12] = compound: CC(C)C1=C2N=C(C=C(N2N=C1)NCC3=CC=CC=C3)NCCCCCCN
How it was run: as §1

[13] = compound: CC(C)C[C@@H](C=O)NC(=O)[C@H](CC(C)C)NC(=O)[C@H](CC(C)C)NC(=O)OCc1ccccc1
How it was run: as §1

pinometostat = compound: CC(C)N(C[C@H]1O[C@@H](n2cnc3c(N)ncnc32)[C@H](O)[C@@H]1O)[C@H]1C[C@@H](CCc2nc3cc(C(C)(C)C)ccc3[nH]2)C1 [pinometostat]
How it was run: as §1

[14] = compound: CC1=C(C(CC(=O)N1)C2=CC=C(C=C2)C(F)(F)F)C(=O)NC3=C(C=C4C(=C3)C=NN4)F
How it was run: as §1

[15] = compound: CC1=C(C2=C(C=C1)C(=O)C3=CC=CC=C3N2CCCN)C
How it was run: as §1

Measured: log2 fold change

PSRC1 (UniProt Q6PGN9)
inactive: erlotinib 0.066 | [1] -0.044 | [2] 0.039 | [3] 0 | [4] 0.028 | [5] 0.042 | [6] 0.067 | [7] 0.016 | [8] 0.013 | [9] -0.087 | IRAK-1-4 Inhibitor I -0.041 | ibrutinib 0.035 | [10] -0.076 | ralimetinib 0.162 | [11] 0.027 | [12] -0.178 | [13] 0.246 | pinometostat 0.106 | [14] 0.026 | [15] 0.005

PSMG4 isoform 2 (UniProt Q5JS54)
inactive: erlotinib 0.094 | [1] 0.056 | [2] 0.158 | [3] -0.012 | [4] -0.039 | [5] 0.079 | [6] 0.033 | [7] -0.016 | [8] -0.05 | [9] -0.009 | IRAK-1-4 Inhibitor I 0.074 | ibrutinib -0.025 | [10] 0.054 | ralimetinib -0.123 | [11] -0.069 | [12] 0.057 | [13] -0.017 | pinometostat 0.033 | [14] 0.144 | [15] 0.019

PTER (UniProt Q96BW5)
inactive: erlotinib -0.001 | [1] -0.013 | [2] 0.035 | [3] 0.034 | [4] -0.024 | [5] 0.007 | [6] -0.019 | [7] -0.022 | [8] 0.013 | [9] 0.04 | IRAK-1-4 Inhibitor I 0.027 | ibrutinib -0.018 | [10] 0.04 | ralimetinib -0.031 | [11] -0.02 | [12] 0.059 | [13] -0.085 | pinometostat -0.088 | [14] 0.025 | [15] 0.005

QARS (UniProt P47897)
inactive: erlotinib 0.054 | [1] -0.015 | [2] -0.541 | [3] -0.007 | [4] 0.018 | [5] 0.021 | [6] -0.055 | [7] 0.023 | [8] 0.073 | [9] -0.177 | IRAK-1-4 Inhibitor I -0.16 | ibrutinib 0.066 | [10] 0.252 | ralimetinib 0.264 | [11] 0.038 | [12] -0.278 | [13] 0.232 | pinometostat 0.521 | [14] -0.013 | [15] -0.058

PSMA1 isoform 2 (UniProt P25786)
inactive: erlotinib -0.057 | [1] -0.054 | [2] -0.012 | [3] -0.025 | [4] -0.078 | [5] 0.007 | [6] -0.002 | [7] -0.008 | [8] 0.02 | [9] 0.007 | IRAK-1-4 Inhibitor I 0.002 | ibrutinib -0.003 | [10] 0.07 | ralimetinib 0.007 | [11] 0.052 | [12] 0.108 | [13] -0.143 | pinometostat 0.003 | [14] 0.056 | [15] -0.062

PTPN1 (UniProt P18031)
inactive: erlotinib 0.079 | [1] 0.062 | [2] -0.115 | [3] -0.054 | [4] 0.054 | [5] 0 | [6] -0.024 | [7] 0.027 | [8] -0.091 | [9] -0.08 | IRAK-1-4 Inhibitor I -0.218 | ibrutinib -0.094 | [10] -0.075 | ralimetinib 0.06 | [11] -0.008 | [12] -0.114 | [13] 0.077 | pinometostat 0.18 | [14] -0.002 | [15] 0.036

PYCR2 (UniProt Q96C36)
inactive: erlotinib -0.019 | [1] 0.004 | [2] 0.037 | [3] 0.01 | [4] -0.024 | [5] -0.022 | [6] 0.033 | [7] 0.01 | [8] 0.005 | [9] 0.017 | IRAK-1-4 Inhibitor I -0.002 | ibrutinib 0.021 | [10] 0.002 | ralimetinib -0.009 | [11] -0.011 | [12] 0.008 | [13] -0.017 | pinometostat -0.086 | [14] -0.017 | [15] -0.006

QSOX1 (UniProt O00391)
inactive: erlotinib -0.036 | [1] -0.063 | [2] -0.039 | [3] 0.047 | [4] 0.071 | [5] -0.005 | [6] -0.014 | [7] -0.142 | [8] -0.019 | [9] -0.072 | IRAK-1-4 Inhibitor I 0.034 | ibrutinib -0.071 | [10] -0.105 | ralimetinib -0.037 | [11] 0.163 | [12] 0.036 | [13] 0.034 | pinometostat -0.105 | [14] 0.018 | [15] -0.011

PSMA8 (UniProt Q8TAA3)
inactive: erlotinib -0.084 | [1] -0.016 | [2] -0.04 | [3] 0.011 | [4] 0.05 | [5] -0.018 | [6] 0.03 | [7] 0.007 | [8] 0.057 | [9] -0.013 | IRAK-1-4 Inhibitor I -0.012 | ibrutinib -0.003 | [10] 0.037 | ralimetinib 0 | [11] 0.04 | [12] 0.04 | [13] -0.072 | pinometostat 0.017 | [14] -0.021 | [15] -0.027

PTMS (UniProt P20962)
inactive: erlotinib 0.035 | [1] -0.021 | [2] 0.082 | [3] -0.012 | [4] -0.067 | [5] 0.068 | [6] -0.008 | [7] 0.096 | [8] -0.042 | [9] 0.034 | IRAK-1-4 Inhibitor I 0 | ibrutinib -0.002 | [10] 0.037 | ralimetinib 0.002 | [11] -0.009 | [12] 0.08 | [13] -0.023 | pinometostat -0.068 | [14] 0.015 | [15] -0.011

PYCARD (UniProt Q9ULZ3)
inactive: erlotinib 0.054 | [1] 0.033 | [2] 0.011 | [3] 0.001 | [4] 0.015 | [5] 0.007 | [6] -0.048 | [7] -0.053 | [8] -0.046 | [9] 0.022 | IRAK-1-4 Inhibitor I -0.087 | ibrutinib 0.022 | [10] -0.021 | ralimetinib -0.044 | [11] -0.144 | [12] -0.014 | [13] -0.082 | pinometostat -0.123 | [14] 0.037 | [15] 0.078

PSMG3 (UniProt Q9BT73)
inactive: erlotinib 0.003 | [1] 0.033 | [2] -0.049 | [3] 0.066 | [4] 0.038 | [5] -0.05 | [6] 0.067 | [7] -0.022 | [8] -0.031 | [9] 0.099 | IRAK-1-4 Inhibitor I 0.015 | ibrutinib 0.025 | [10] -0.074 | ralimetinib 0.003 | [11] 0.014 | [12] 0 | [13] -0.032 | pinometostat 0.026 | [14] -0.042 | [15] 0.039

PTGS1 isoform 6 (UniProt P23219)
inactive: erlotinib 0.02 | [1] -0.047 | [2] 0.022 | [3] 0.011 | [4] 0.015 | [5] 0.034 | [6] 0.008 | [7] 0.019 | [8] -0.008 | [9] 0.033 | IRAK-1-4 Inhibitor I 0.009 | ibrutinib -0.012 | [10] 0.018 | ralimetinib -0.036 | [11] 0.006 | [12] 0.035 | [13] 0.019 | pinometostat 0.04 | [14] -0.011 | [15] 0.012

PTK2 (UniProt Q05397)
inactive: erlotinib 0.101 | [1] 0.01 | [2] 0.006 | [3] -0.041 | [4] 0.005 | [5] 0.01 | [6] -0.022 | [7] 0.025 | [8] 0.057 | [9] 0.002 | IRAK-1-4 Inhibitor I 0.001 | ibrutinib -0.014 | [10] 0.103 | ralimetinib -0.05 | [11] -0.029 | [12] -0.122 | [13] 0.006 | pinometostat -0.027 | [14] 0.003 | [15] 0.051

PSME2 (UniProt Q9UL46)
inactive: erlotinib 0.03 | [1] -0.037 | [2] 0.015 | [3] -0.001 | [4] -0.013 | [5] 0.02 | [6] 0.062 | [7] 0.009 | [8] 0.033 | [9] 0.033 | IRAK-1-4 Inhibitor I 0.021 | ibrutinib -0.021 | [10] 0.005 | ralimetinib -0.054 | [11] -0.012 | [12] -0.006 | [13] -0.054 | pinometostat -0.027 | [14] 0 | [15] -0.075

Quoted from the listing (2 entries):
QSOX1 (UniProt O00391)
inactive: erlotinib -0.036 | [1] -0.063 | [2] -0.039 | [3] 0.047 | [4] 0.071 | [5] -0.005 | [6] -0.014 | [7] -0.142 | [8] -0.019 | [9] -0.072 | IRAK-1-4 Inhibitor I 0.034 | ibrutinib -0.071 | [10] -0.105 | ralimetinib -0.037 | [11] 0.163 | [12] 0.036 | [13] 0.034 | pinometostat -0.105 | [14] 0.018 | [15] -0.011

PSMA8 (UniProt Q8TAA3)
inactive: erlotinib -0.084 | [1] -0.016 | [2] -0.04 | [3] 0.011 | [4] 0.05 | [5] -0.018 | [6] 0.03 | [7] 0.007 | [8] 0.057 | [9] -0.013 | IRAK-1-4 Inhibitor I -0.012 | ibrutinib -0.003 | [10] 0.037 | ralimetinib 0 | [11] 0.04 | [12] 0.04 | [13] -0.072 | pinometostat 0.017 | [14] -0.021 | [15] -0.027

Following part

PSMB5 (UniProt P28074)
inactive: erlotinib -0.095 | [1] -0.026 | [2] 0.065 | [3] 0.002 | [4] -0.037 | [5] -0.046 | [6] 0.026 | [7] -0.01 | [8] -0.014 | [9] 0.041 | IRAK-1-4 Inhibitor I -0.006 | ibrutinib -0.011 | [10] 0.04 | ralimetinib 0.022 | [11] 0.02 | [12] 0.059 | [13] -0.133 | pinometostat -0.009 | [14] -0.028 | [15] 0.009

From the supplement of paper PMC10849652
